Record: PubChem BioAssay AID743121 (NCATS, 2013)
Test: 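Knock-downs that sensitise breast cancer cells to camptothecin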 (primary screen). System: MDA-MB-231 cells, a human breast cancer line. Knock-down reagent: single siRNA against human genes, 20 nM siRNA (0.8 pmol per well). Duration: 120 h (drug added 48 h after transfection, read 72 h later). Challenge: camptothecin 20 nM (about EC30) for 72 h; vehicle 0.1% DMSO in parallel plates. Read-out: 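Cell viability by ATP luminescence (CellTiter-Glo) as % of non-targeting siRNA wells, and the log2 ratio of viability without drug over viability with camptothecin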. Direction: log2 vehicle/camptothecin viability: higher = stronger sensitisation to camptothecin. Rule for the call: 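Each gene scored by redundant siRNA activity (RSA) over its individual siRNA ratios; a gene is called active at p < 0.001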.
The deposit covers about 26,000 reagents; shown is an unselected part. 167 of all reagents (0.63%) count as active. 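Calls are per gene from RSA p-values that are not deposited; an individual active-marked siRNA can sensitise only weakly.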 The numbers tell different reagents against one gene apart. Further read-outs or replicates are left out here.

NR2C2 #1 scored log2 vehicle/camptothecin viability -0.424; inactive.
With knock-down of NR2C2 #2, the record shows log2 vehicle/camptothecin viability -0.176; inactive.
After knock-down of NR2C2 #3, the screen gave log2 vehicle/camptothecin viability -0.227; inactive.
Depletion of NR2C2 #4 came out at: log2 vehicle/camptothecin viability -0.168; inactive.
Depletion of RARB #1 gave: log2 vehicle/camptothecin viability -0.548; inactive.
RARB #2 scored log2 vehicle/camptothecin viability -0.369; inactive.
For RARB #3, the entry reads log2 vehicle/camptothecin viability -0.217; inactive.
Knock-down of RARB #4 came out at: log2 vehicle/camptothecin viability -0.0209; inactive.
With knock-down of TOMM34 #1, the record shows log2 vehicle/camptothecin viability -0.275; inactive.
TOMM34 #2 scored log2 vehicle/camptothecin viability 0.21; inactive.
With knock-down of TOMM34 #3, the screen gave log2 vehicle/camptothecin viability -0.187; inactive.
After knock-down of TOMM34 #4 the results were log2 vehicle/camptothecin viability -0.578; inactive.
ABCB10 #1 scored log2 vehicle/camptothecin viability -0.38; inactive.
Knock-down of ABCB10 #2 gave: log2 vehicle/camptothecin viability -0.151; inactive.
ABCB10 #3 showed log2 vehicle/camptothecin viability 0.188; inactive.

In a second layout: entries from further up
| target gene | reagent | log2 vehicle/camptothecin viability | Call |
| --- | --- | --- | --- |
| NR2C2 | 3 | -0.227 | inactive |
| NR2C2 | 4 | -0.168 | inactive |
